Out of some 310,000 compounds screened, about 17,000 (5.5%) were called active. Inconclusive means that the source gave no clear call. Such entries were picked first, then a sample of the others. Calls come from the whole dose curve; as a rule, active = well fitted inhibition curve with a large enough effect; inconclusive = small, poorly fitted or top-dose-only effect, or effect the other way; inactive = no such curve, though single readings can be large or run the other way. A potency beside an inconclusive call is a rough fit, not a confirmed value.
molecular target: Nuclear receptor ROR-gamma (Mus musculus) (UniProt P51450); experiment: qHTS for inhibitors of ROR gamma transcriptional activity; details: Drosophila S2 Gal4-RORgamma UAS-luciferase reporter, 20 h; series mostly up to 53.6 µM; note: nearly all actives have a fitted effect of over 60% in size
Method in brief: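 Stable Schneider cell line, Gal4 DNA-binding domain fused to ROR gamma, UAS-luciferase. Cmpd 1 hr RT → CuSO4 700 uM final → 20 hr RT → luciferase reagent 10 min → luminescence.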
Potency is the fitted concentration of half-maximal effect.

Protein sequences, listed by entry. Tags and fused reporters are not part of them. Lines headed by an entry give the natural chain unless they say otherwise; changes in a name come on top.
UniProt P51450: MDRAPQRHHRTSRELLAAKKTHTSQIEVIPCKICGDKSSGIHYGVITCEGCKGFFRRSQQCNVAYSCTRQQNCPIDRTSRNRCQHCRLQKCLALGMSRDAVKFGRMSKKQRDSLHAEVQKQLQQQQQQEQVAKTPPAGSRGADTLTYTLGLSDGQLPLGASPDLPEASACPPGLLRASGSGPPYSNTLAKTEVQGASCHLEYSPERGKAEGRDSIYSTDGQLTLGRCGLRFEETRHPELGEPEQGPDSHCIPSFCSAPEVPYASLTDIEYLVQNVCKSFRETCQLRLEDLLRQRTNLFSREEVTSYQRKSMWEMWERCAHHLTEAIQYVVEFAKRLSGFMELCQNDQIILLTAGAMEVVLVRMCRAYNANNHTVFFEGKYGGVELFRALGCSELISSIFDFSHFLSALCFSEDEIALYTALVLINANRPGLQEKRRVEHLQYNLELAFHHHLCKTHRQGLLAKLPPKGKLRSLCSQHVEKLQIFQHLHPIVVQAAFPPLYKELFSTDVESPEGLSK

Compound	Potency
COc1ccc2[nH]c3c(NCc4ccco4)ncnc3c2c1	inconclusive: 17.8 µM [activator, partial curve]
COc1ccc(S(=O)(=O)NNC(=O)C2Cc3c(ccc4ccccc34)O2)cc1 (stereo not given)	inconclusive: 12.6 µM [activator, partial curve]
Cc1cc(N2CCN(C(=O)c3ccco3)CC2)n2ncc(-c3ccccc3)c2n1	inconclusive: 20 µM [activator, partial curve]
CC(C)C(CC(=O)N1CCCCC1)C1CCOC(C)(C)C1 (stereo not given)	inconclusive: 15.8 µM [activator, single point]
Cc1ccccc1-c1nc(CS(=O)CC(=O)NCCc2ccc(Cl)cc2)c(C)o1 (stereo not given)	inactive
COc1cc(O)c(C(CCN2CCCC(C)C2)c2cc(OC)c(OC)c(OC)c2)c(OC)c1 (stereo not given)	inconclusive: 15.8 µM [activator, single point]
CCOc1ccccc1C(=O)Nc1ccc(C(=O)c2ccccc2)cc1	inconclusive: 12.6 µM [activator, partial curve]
Cc1ccc(-c2nc(Nc3ccccc3)n[nH]2)cc1	inconclusive: 5.62 µM [inhibitor, single point]
COc1ccc(Cc2noc(-c3ccc(OC)c(OC)c3)n2)cc1OC	inactive
CCc1ccc2oc(-c3cc(N)ccc3Cl)nc2c1	inconclusive: 10 µM [inhibitor, single point]
COc1ccc(CCNC(=O)c2c(C)nc3ccccn23)cc1	inconclusive: 12.6 µM [activator, single point]
O=S(=O)(NCc1cccnc1)c1ccc(Br)s1	inactive
COc1ccccc1-c1cn[nH]c(=S)n1	active: 8.91 µM
c1ccc(-c2nnc3sc(-c4csc5c4CCCC5)nn23)cc1	active: 6.31 µM
O=C(CN(CC1CCCO1)C(=O)CNS(=O)(=O)c1ccc(Cl)cc1)NCc1ccccc1 (stereo not given)	inactive
Cc1ccc(C)c(Cn2c(C)nc3c(sc(=S)n3-c3ccccc3)c2=O)c1	inactive
Cn1c(C(=O)N2CCC(C(=O)N3CCN(Cc4ccc5c(c4)OCO5)CC3)CC2)cc2sccc21	inconclusive: 35.5 µM [activator, single point]
CN1C(=O)NC(c2ccccc2)(C(F)(F)F)S/C1=C(/C#N)c1nnc(N2CCOCC2)n1-c1ccccc1 (stereo not given)	active: 14.1 µM
COc1ccc(CCCC(=O)O)c(C)c1	inconclusive: 0.316 µM [inhibitor, partial curve, poor fit]
CCOc1ccccc1CNC(=O)c1nn(C)c2c1CS(=O)(=O)c1ccccc1-2	inactive
Cc1cc(C(=O)c2cnc(/N=C/N(C)C)s2)c(F)cc1Cl	inconclusive: 28.2 µM [activator, single point]
COc1ccc(CCNc2nnc(Sc3nnnn3-c3ccccc3)s2)cc1OC	inconclusive: 35.5 µM [activator, single point]
Cc1ccc(C(=O)Nc2ccc(C(=O)N/N=C/c3ccccn3)cc2)cc1	inconclusive: 2.24 µM [inhibitor, partial curve, poor fit]
N#C/C(=C\c1ccc(O)c(O)c1)C(=O)Nc1ccccc1	inconclusive: 17.8 µM [inhibitor, partial curve, poor fit]

Compound	Potency
C/C(=N\NC(=S)NC(C)C)c1ccc(C(C)(C)C)cc1	active: 1 µM
CC(=O)Nc1cccc(-c2cn3ccc(C)cc3n2)c1	inconclusive: 11.2 µM [inhibitor, partial curve, poor fit]
CCOC(=O)c1cc2cc3ccccc3cc2[nH]1	inconclusive: 5.62 µM [activator, single point]
COc1ccc2[nH]cc(CCNC(=S)NC3CCCC3)c2c1	active: 10 µM
CCOC(=O)C1(CCCc2ccccc2)CCN(C(=O)C2=C(C)OCCO2)CC1	inconclusive: 12.6 µM [activator, partial curve, poor fit]
COc1ccccc1NC(=O)Cn1cnc2c(oc3ccccc32)c1=O	inconclusive: 3.16 µM [activator, full curve]
COc1ccc(C(=O)NCC(=O)N2CCN(c3ccccc3)CC2)cc1	inconclusive: 2.82 µM [activator, partial curve]
O=C(NCc1ccc(Cl)cc1)C1=Cc2cc(Cl)ccc2OC1	inconclusive: 12.6 µM [activator, partial curve]
c1ccc(-n2ncc3c(N4CCN(c5ccccn5)CC4)nc(N4CCCCCC4)nc32)cc1	inconclusive: 0.0045 µM [inhibitor, full curve, poor fit]
COC(=O)c1ccn(CC(=O)NC2CCCCC2)n1	inactive
Cc1ccc(NC(C)c2cc(Cl)ccc2O)cc1 (stereo not given)	inconclusive: 10 µM [inhibitor, partial curve, poor fit]
O=C1c2ccccc2C(=O)C12OC2c1cccc2ccccc12 (stereo not given)	inconclusive: 35.5 µM [inhibitor, single point]
COc1ccc(OC)c(/C=C/C(=O)Nc2ccc(OC)nc2)c1	inconclusive: 11.2 µM [activator, partial curve]
CS(=O)(=O)N(Cc1ccccc1)c1ccc(C(=O)NCCSCc2ccco2)cc1	inconclusive: 2 µM [activator, full curve]
O=c1c2ccccc2nc(COc2ccccc2)n1/N=C/c1c[nH]c2ccccc12	inconclusive: 7.08 µM [activator, partial curve]
Cc1cc(Nc2ccc(O)cc2)n2c(nc3ccccc32)c1C#N	inactive
COc1cc(/C=C2/CCCC(C(=O)C(F)(F)F)=C2O)ccc1O	inconclusive: 11.2 µM [inhibitor, single point]
COC(=O)[C@@]1(Cc2ccc(F)cc2)[C@H]2c3cc(C(=O)N(C)C)n(Cc4ccc(OC)c(OC)c4)c3C[C@H]2CN1C(=O)c1ccccc1	inconclusive: 14.1 µM [activator, single point]
CCn1c(CCCCc2n[nH]c(=S)n2CC)n[nH]c1=S	active: 5.62 µM
Cc1ccc(NC(=O)CNc2cccc(C)c2C)c(C)c1	inconclusive: 31.6 µM [activator, single point]
Cc1nc2c(C(=O)NCc3ccco3)cnn2c(C)c1Cc1ccc(F)cc1Cl	inconclusive: 35.5 µM [activator, single point]
CCOC(=O)c1c(C)[nH]c(=S)c(C#N)c1-c1ccc(Cl)cc1	active: 11.2 µM
COc1ccccc1-c1cn[nH]c1-c1ccc(OCc2ccc([N+](=O)[O-])cc2)cc1O	inconclusive: 5.01 µM [inhibitor, partial curve]
Nn1c(SCc2ccccc2)nc2c(cnn2-c2ccccc2)c1=O	inconclusive: 17.8 µM [activator, single point]

Among those listed so far, 15 have an aryl methoxy group.
Compound	Potency
COc1ccc2[nH]c3c(NCc4ccco4)ncnc3c2c1	inconclusive: 17.8 µM [activator, partial curve]
COc1ccc(S(=O)(=O)NNC(=O)C2Cc3c(ccc4ccccc34)O2)cc1 (stereo not given)	inconclusive: 12.6 µM [activator, partial curve]
COc1cc(O)c(C(CCN2CCCC(C)C2)c2cc(OC)c(OC)c(OC)c2)c(OC)c1 (stereo not given)	inconclusive: 15.8 µM [activator, single point]
COc1ccc(Cc2noc(-c3ccc(OC)c(OC)c3)n2)cc1OC	inactive
COc1ccc(CCNC(=O)c2c(C)nc3ccccn23)cc1	inconclusive: 12.6 µM [activator, single point]
COc1ccccc1-c1cn[nH]c(=S)n1	active: 8.91 µM
COc1ccc(CCCC(=O)O)c(C)c1	inconclusive: 0.316 µM [inhibitor, partial curve, poor fit]
COc1ccc(CCNc2nnc(Sc3nnnn3-c3ccccc3)s2)cc1OC	inconclusive: 35.5 µM [activator, single point]
COc1ccc2[nH]cc(CCNC(=S)NC3CCCC3)c2c1	active: 10 µM
COc1ccccc1NC(=O)Cn1cnc2c(oc3ccccc32)c1=O	inconclusive: 3.16 µM [activator, full curve]
COc1ccc(C(=O)NCC(=O)N2CCN(c3ccccc3)CC2)cc1	inconclusive: 2.82 µM [activator, partial curve]
COc1ccc(OC)c(/C=C/C(=O)Nc2ccc(OC)nc2)c1	inconclusive: 11.2 µM [activator, partial curve]
COc1cc(/C=C2/CCCC(C(=O)C(F)(F)F)=C2O)ccc1O	inconclusive: 11.2 µM [inhibitor, single point]
COC(=O)[C@@]1(Cc2ccc(F)cc2)[C@H]2c3cc(C(=O)N(C)C)n(Cc4ccc(OC)c(OC)c4)c3C[C@H]2CN1C(=O)c1ccccc1	inconclusive: 14.1 µM [activator, single point]
COc1ccccc1-c1cn[nH]c1-c1ccc(OCc2ccc([N+](=O)[O-])cc2)cc1O	inconclusive: 5.01 µM [inhibitor, partial curve]

Next records

Compound	Potency
Cc1c(Br)c([N+](=O)[O-])nn1CC(=O)NCCc1c[nH]c2ccccc12	inconclusive: 35.5 µM [activator, single point]
Cc1cccc[n+]1CC(=O)/C=C1\N(C)c2ccccc2C1(C)C	inconclusive: 3.16 µM [activator, single point]
CN1CCN(S(=O)(=O)c2ccc(N(C)Cc3cccs3)nc2)CC1	inconclusive: 35.5 µM [inhibitor, single point]
O=C(Nc1cnn(Cc2ccc(Cl)c(Cl)c2)c1)C12CC3CC(CC(C3)C1)C2	inconclusive: 6.31 µM [activator, partial curve]
COCCn1c(=O)c(-c2ccc(F)cc2)nc2cnc(Nc3cccc(OC)c3)nc21	inactive
Cc1ccccc1OCC(=O)Nc1ccncc1	inconclusive: 2 µM [activator, full curve]
Oc1cc2c(cc1CN1CCN(c3cccc(C(F)(F)F)c3)CC1)CCC2	inconclusive: 35.5 µM [activator, single point]
CCOc1ccc(C2C3=C(CC(C)(C)CC3=O)N(CC(=O)O)C3=C2C(=O)CC(C)(C)C3)cc1OCC	inactive
CCOC(=O)C1CCN(CCC(=O)Nc2cc(C)ccc2C)CC1	inactive
CC(C)(C)NS(=O)(=O)c1ccc(CCC(=O)Nc2ccc3c(c2)OCCO3)cc1	inactive
C=CCN(c1ccccc1)S(=O)(=O)c1cccc(C(=O)NCC2CCCO2)c1 (stereo not given)	inactive
O=C(CN1CCOC1=O)N1CCCC(Nc2ccc(F)c(F)c2)C1 (stereo not given)	inactive
Cc1[nH]n(-c2ccc([N+](=O)[O-])cc2)c(=O)c1C=NCCN1CCN(C(=O)C(C)C)CC1	inconclusive: 35.5 µM [inhibitor, single point]
COc1ccccc1C(=O)NC(=S)N1CCCc2ccccc21	active: 7.94 µM
CSc1ccc(Cl)c(C(=O)Nc2ccc(N3CCOCC3)cc2)c1	inactive
O=C(NNC(=O)c1ncc(Cl)c(Cl)c1Cl)c1ccc(F)cc1	active: 7.08 µM
C/C(=N/Nc1ccc(C(=O)O)cc1)c1ccc(O)c(O)c1O	inconclusive: 22.4 µM [inhibitor, single point]
COc1ccc(N2CCN(Cc3nc(N)nc(Nc4ccccc4OC)n3)CC2)cc1	inconclusive: 0.005 µM [inhibitor, full curve, poor fit]
CCOC(=O)C(Cc1ccccc1)NC(=O)CCc1nnc2ccc(N3CCCC3)nn12 (stereo not given)	inactive
O=C(Nc1ccc(F)cc1)c1sccc1SCc1cccc(C(F)(F)F)c1	inconclusive: 17.8 µM [activator, partial curve, poor fit]
COC(=O)CCSCC(=O)N1N=C(c2ccc(OC)cc2)CC1c1cccc(OC)c1OC (stereo not given)	inconclusive: 2.24 µM [activator, full curve, poor fit]
O=C(c1ccc(C(F)(F)F)cc1)N1CCC(=O)N(C(COCc2ccc(Cl)cc2)Cc2ccccc2)CC1 (stereo not given)	inconclusive: 11.2 µM [activator, partial curve]
